# This is one part of the list. These are further read-outs of the screen, such as a control signal, another cell line or another target. No call is given for them. Most of these compounds were active or inconclusive in the main read-out, so they are no random draw. Potencies come from curve fits of mixed quality, noted in brackets.
# Experiment: qHTS Assay to Find Inhibitors of Chronic Active B-Cell Receptor Signaling
# Details: ABC-DLBCL IkBa-CBG/CBR reporter, luminescence ratio (green luciferase fused to IkBa over red control in TMD8 lymphoma cells), 4 h
# Procedure, shortened: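 Compounds up to 46 uM were incubated four hours with TMD8 cells whose green CBG68 luciferase is fused to IkappaBalpha; red CBR luminescence normalised the signal, and concentration-effect curves were fitted to fusion, red and ratio data.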
# [1] = measured here: CBR red luminescence, cell number
# [2] = measured here: IkBa-CBG green luminescence
Structure (SMILES),AC50 [1],AC50 [2]
CSc1sccc1/C=N/O,"0.316 µM [rising, full curve, poor fit]",
CCc1cc2c(=O)n(CC(C)C)cnc2s1,"14.6 µM [rising, partial curve, poor fit]",
CCc1ccc(Oc2coc3cc(OCC(=O)Nc4cc(C)ccc4C)ccc3c2=O)cc1,"3.66 µM [rising, full curve, poor fit]",
O=C(NCc1ccccc1Cl)C1CCCN(c2ncnc3c2nc2n3CCCCC2)C1 (configuration not stated),"4.47 µM [rising, partial curve, poor fit]",
CCOc1cc(CNCCO)cc(Br)c1OCc1cccs1,"20 µM [falling, single point]",
N#Cc1c(Sc2ncc(C(F)(F)F)cc2Cl)nsc1C/C=N\OCc1c(F)cccc1Cl,"6.51 µM [falling, single point]",
CCCCC(CC)COC1(c2ccccc2)OC(=O)c2ccccc21 (configuration not stated),"3.16 µM [rising, single point]",
NNC(=S)Nc1ccccc1Cl,"10 µM [falling, partial curve]",
c1ccc(Cn2nnc(-c3ccccc3)n2)cc1,"2.91 µM [rising, full curve, poor fit]",
O=C(CSc1nccn1-c1cccc(Cl)c1)NO,"5.62 µM [falling, partial curve, poor fit]",
O=C(Nc1cccc(Cl)c1)c1ccc(NCCCN2CCOCC2)c([N+](=O)[O-])c1,"10 µM [falling, partial curve]",
Cc1ccc(S(=O)(=O)N/N=C/c2cc(Br)ccc2O)cc1,"3.98 µM [falling, partial curve, poor fit]",
O=C(O)c1ccc(N2C(=O)/C(=C\c3ccccc3)N=C2c2ccccc2)cc1,"11.2 µM [falling, partial curve, poor fit]",
Cc1ccc(CNC(=O)c2cccc3c2C(=O)c2ccc(N4CCOCC4)cc2S3(=O)=O)cc1,"29.1 µM [falling, single point]",
CCn1nnnc1SCCSc1nnnn1CC,"9.2 µM [rising, partial curve, poor fit]",
Cc1nc2scc(-c3ccccc3)c2c(=O)n1N=C1C=CC(=O)C=C1,"11.2 µM [falling, partial curve, poor fit]",
O=C(Nc1ccc(Oc2cccnc2)cc1)c1ccccc1F,"35.5 µM [falling, single point]",
COC(=O)c1sccc1N/N=C/c1cccc(OC)c1O,"0.366 µM [falling, full curve, poor fit]",
Cc1ccc(-c2csc(NC(=O)CSc3ncn(-c4ccccc4)n3)n2)cc1,"6.51 µM [rising, single point]",
c1csc(-c2ccc(N3CCOCC3)nn2)c1,"0.562 µM [rising, full curve, poor fit]",
O=C(Nc1nc(COc2ccccc2)cs1)C12CC3CC(CC(C3)C1)C2,"14.6 µM [falling, partial curve]",
COc1ccc(-c2nc3sc(CCNC(=O)C(=O)Nc4ccc(C)c(F)c4)c(C)n3n2)cc1,"15.8 µM [falling, single point]",

# Among those listed so far, these contain an aryl methoxy group.
Structure (SMILES),AC50 [1],AC50 [2]
COC(=O)c1sccc1N/N=C/c1cccc(OC)c1O,"0.366 µM [falling, full curve, poor fit]",
COc1ccc(-c2nc3sc(CCNC(=O)C(=O)Nc4ccc(C)c(F)c4)c(C)n3n2)cc1,"15.8 µM [falling, single point]",

# Additional records:

Structure (SMILES),AC50 [1],AC50 [2]
CCCCOc1ccc(C(=O)NCCc2ccccc2)cc1,"2.24 µM [rising, full curve, poor fit]",
COc1cc(-c2noc(C)c2C#Cc2ccc(N)cc2)cc(OC)c1OC,"2.82 µM [rising, full curve, poor fit]","3.98 µM [falling, full curve]"
CC(=O)c1sc(Nc2nc(C)cc(C)n2)nc1C,"7.31 µM [falling, single point]",
COc1cc(OC)cc(C(=O)Nc2ccc3c(c2)OCCO3)c1,"14.1 µM [falling, partial curve]",
CCn1cc(C(=O)O)c(=O)c2cc(F)c(N3CCN(C(=S)NC(=O)c4ccccc4)CC3)cc21,"35.5 µM [rising, single point]",
O=C(NCc1ccc2c(c1)OCO2)c1ccc2c(c1)C(=O)N(Cc1cccnc1)C2=O,"16.4 µM [rising, single point]",
CC(=O)C1=C(c2ccc(Cl)c(Cl)c2)N(C(C)=O)n2cnnc2S1,"0.501 µM [falling, full curve, poor fit]","35.5 µM [falling, single point]"
CC(=O)NCc1ccc(C(=O)CSc2nnc(C3CC3)n2C2CC2)cc1,"14.6 µM [falling, partial curve, poor fit]",
O=C(O)c1ccc(N2C(=O)c3cccnc3C2=O)cc1,"12.6 µM [falling, single point]",
O=C1C(c2ccccc2)SC(=Nc2ccccc2)N1S(=O)(=O)c1ccccc1 (configuration not stated),"4.11 µM [falling, full curve]",
COCCN(C(=O)COC(=O)c1ccccc1Cc1ccccc1)c1c(N)n(Cc2ccccc2)c(=O)[nH]c1=O,"23.1 µM [falling, partial curve, poor fit]",
COc1cc(N2CCCC2)c(OC)cc1/C=C(/C#N)c1cccc(Br)c1,"29.1 µM [rising, single point]",
CCOC(=O)c1nc2cc3n(c(C)c-2c1C)C(C)C(C)=C3C (configuration not stated),"5.8 µM [falling, single point]",
COc1ccc(OCCOc2ccc(/C=C3\C(=N)N4N=C(C)SC4=NC3=O)cc2)cc1,"29.1 µM [rising, single point]",
Cc1ccc(C(=O)N2N=C(c3ccc(Br)cc3)CC2c2ccccc2O)cc1 (configuration not stated),"15.8 µM [falling, partial curve, poor fit]",
Cc1nc(N)sc1-c1csc(Nc2cccc(C(=O)O)c2)n1,"25.1 µM [falling, single point]",
Clc1ccc(COc2ccccn2)c(Cl)c1,"3.16 µM [rising, partial curve, poor fit]",
O=C(Nc1ccc(Cl)cc1)Nc1ccc(Oc2cccnc2)nc1,"0.794 µM [rising, full curve, poor fit]",
O=C1c2cccnc2C(Nc2ccc(S(=O)(=O)N3CCCCCC3)cc2)N1Cc1ccccc1 (configuration not stated),"6.31 µM [falling, partial curve]",
CN(C)CCNC(=O)C1(O)c2cc(Br)ccc2NC(=O)N1c1ccc(Cl)cc1 (configuration not stated),"10 µM [rising, partial curve, poor fit]",
CCCCn1c(N)c(N(CCOC)C(=O)c2ccc(N3CCCC3=O)cc2)c(=O)[nH]c1=O,"13 µM [rising, partial curve, poor fit]",
CCN(CC)CCNC(=O)Cn1c(-c2ccccn2)nc2ccccc21,"29.1 µM [rising, single point]",

Structure (SMILES),AC50 [1],AC50 [2]
O=C(Nc1cccc(/C=C/c2nc3ccccc3c(=O)[nH]2)c1)c1ccccc1Cl,"0.398 µM [falling, full curve]","0.398 µM [rising, full curve, poor fit]"
COc1ccc(CCNC(=O)C2CC(c3cccc(F)c3)=NO2)cc1 (configuration not stated),"0.891 µM [rising, single point]",
Cc1cc2nn(-c3ccc(F)cc3)nc2cc1N,"0.794 µM [rising, full curve, poor fit]",
CCOC(=O)C1CCN(C(=O)COc2ccc([N+](=O)[O-])cc2)CC1,"11.2 µM [falling, partial curve]",
Cc1ccnc(SCC(=O)N2CCc3ccccc3C2)n1,"8.91 µM [rising, partial curve, poor fit]",
COc1ccccc1NC1=NCC(=O)N1Cc1ccccc1,"7.94 µM [falling, partial curve]",
O=C(COc1ncnc2sccc12)NC1CCS(=O)(=O)C1 (configuration not stated),"11.2 µM [falling, partial curve, poor fit]",
CCOC(=O)c1n[nH]n2c1nc(=O)c1ccccc12,"6.31 µM [falling, partial curve, poor fit]",
CCC(=O)N(CCC1(C(C)C)CCOC(C)(C)C1)C(C)c1cccs1 (configuration not stated),"11.2 µM [falling, partial curve, poor fit]",
CC(C)c1nnc(NC(=O)C2CCCCC2)s1,"0.0651 µM [rising, full curve, poor fit]",
Cc1cccc(NC(=O)C(C)n2cc([N+](=O)[O-])cn2)n1 (configuration not stated),"3.55 µM [rising, partial curve, poor fit]",
Cc1ccc(NC(=S)N2CCCCC2)cc1C,"11.2 µM [rising, single point]",
Cc1ccc(NC(=O)c2ccccc2F)nc1,"29.1 µM [falling, single point]",
Cc1onc(-c2ccccc2)c1C(=O)Nc1ccc(Br)cc1Cl,"2.24 µM [falling, full curve]",
C=CCn1c(CNc2ccc(C)cc2)nnc1SCC(=O)N/N=C/c1ccc(O)cc1,"5.62 µM [falling, single point]",
COc1ccc(CN=C2NN=C(c3ccccc3)CS2)cc1,"35.5 µM [falling, single point]",
COc1cccc(CNC23CC4CC(CC(C4)C2)C3)c1OCc1ccccc1,"12.6 µM [falling, single point]",
C#CCOCCOCCOCCNc1nc(N2CCOCC2)nc(N2CCN(C(=O)[C@H](CCCCN)n3cc([C@@H](N)CC(C)C)nn3)CC2)n1,"12.6 µM [rising, partial curve, poor fit]",
CN(C)c1ccc(NC(N)=S)cc1,"11.6 µM [rising, partial curve]",
CCCCC(=O)OCC(=O)N1N=C(c2c[nH]c3ccccc23)C(O)C1c1ccc(OC)cc1 (configuration not stated),"35.5 µM [falling, single point]",

# Whole records as entered above.
# COc1ccc(CCNC(=O)C2CC(c3cccc(F)c3)=NO2)cc1 (configuration not stated) as listed: AC50 [1]: 0.891 µM [rising, single point]
# Cc1ccc(NC(=S)N2CCCCC2)cc1C as listed: AC50 [1]: 11.2 µM [rising, single point]

# — PubChem BioAssay AID493014 (National Center for Advancing Translational Sciences (NCATS), 2011)
